In the supplement of paper PMC10849652:
This is one part of the list. Residues, ends and D or L forms follow the SMILES beside them. *: point of attachment. Cbz = O=C(OCc1ccccc1)*

Amino acid sequences for entries named in this document (tags omitted). A change or cut given only in a name is not applied to a line headed by its entry.
UniProt P02792: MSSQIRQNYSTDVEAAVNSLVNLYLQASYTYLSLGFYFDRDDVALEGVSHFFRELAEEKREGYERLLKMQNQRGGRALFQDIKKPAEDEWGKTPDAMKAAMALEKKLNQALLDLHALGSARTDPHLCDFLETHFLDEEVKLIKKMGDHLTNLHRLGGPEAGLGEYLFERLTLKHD
UniProt P55789: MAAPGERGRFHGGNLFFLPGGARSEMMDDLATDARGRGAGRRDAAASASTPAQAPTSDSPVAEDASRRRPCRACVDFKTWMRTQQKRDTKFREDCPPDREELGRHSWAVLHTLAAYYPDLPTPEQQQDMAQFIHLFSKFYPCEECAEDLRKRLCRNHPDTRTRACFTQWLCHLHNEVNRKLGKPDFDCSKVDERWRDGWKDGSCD
UniProt O14772: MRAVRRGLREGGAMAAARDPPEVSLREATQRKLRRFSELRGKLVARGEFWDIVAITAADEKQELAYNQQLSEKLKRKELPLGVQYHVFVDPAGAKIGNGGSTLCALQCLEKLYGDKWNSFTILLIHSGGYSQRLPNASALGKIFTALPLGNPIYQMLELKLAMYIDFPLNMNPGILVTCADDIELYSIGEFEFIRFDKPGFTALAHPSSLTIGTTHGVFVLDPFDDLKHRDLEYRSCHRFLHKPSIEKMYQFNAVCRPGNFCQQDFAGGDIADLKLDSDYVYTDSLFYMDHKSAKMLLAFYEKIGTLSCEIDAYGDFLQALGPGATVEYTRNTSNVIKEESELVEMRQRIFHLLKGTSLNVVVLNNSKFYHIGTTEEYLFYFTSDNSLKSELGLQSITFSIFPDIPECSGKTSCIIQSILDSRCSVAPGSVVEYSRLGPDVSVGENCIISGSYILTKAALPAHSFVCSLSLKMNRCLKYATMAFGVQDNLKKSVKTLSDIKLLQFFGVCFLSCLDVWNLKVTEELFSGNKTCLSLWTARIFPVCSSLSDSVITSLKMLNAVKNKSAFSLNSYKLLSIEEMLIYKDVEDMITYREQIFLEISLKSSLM
UniProt Q96CU9: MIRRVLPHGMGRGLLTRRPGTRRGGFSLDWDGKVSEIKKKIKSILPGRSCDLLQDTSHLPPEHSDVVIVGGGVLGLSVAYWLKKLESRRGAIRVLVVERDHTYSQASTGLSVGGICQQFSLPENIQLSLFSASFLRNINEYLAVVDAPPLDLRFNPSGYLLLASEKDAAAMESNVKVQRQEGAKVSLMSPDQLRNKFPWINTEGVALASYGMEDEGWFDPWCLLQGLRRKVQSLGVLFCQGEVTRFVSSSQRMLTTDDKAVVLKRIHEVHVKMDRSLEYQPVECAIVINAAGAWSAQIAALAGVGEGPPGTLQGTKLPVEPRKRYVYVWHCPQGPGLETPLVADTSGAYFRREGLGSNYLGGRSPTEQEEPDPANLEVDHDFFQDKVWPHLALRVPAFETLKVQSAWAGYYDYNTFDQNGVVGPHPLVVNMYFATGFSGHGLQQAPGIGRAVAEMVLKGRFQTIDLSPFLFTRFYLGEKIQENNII
UniProt P30047: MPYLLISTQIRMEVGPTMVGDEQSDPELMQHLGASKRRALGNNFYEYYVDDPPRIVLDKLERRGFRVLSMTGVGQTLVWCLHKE
UniProt P07902: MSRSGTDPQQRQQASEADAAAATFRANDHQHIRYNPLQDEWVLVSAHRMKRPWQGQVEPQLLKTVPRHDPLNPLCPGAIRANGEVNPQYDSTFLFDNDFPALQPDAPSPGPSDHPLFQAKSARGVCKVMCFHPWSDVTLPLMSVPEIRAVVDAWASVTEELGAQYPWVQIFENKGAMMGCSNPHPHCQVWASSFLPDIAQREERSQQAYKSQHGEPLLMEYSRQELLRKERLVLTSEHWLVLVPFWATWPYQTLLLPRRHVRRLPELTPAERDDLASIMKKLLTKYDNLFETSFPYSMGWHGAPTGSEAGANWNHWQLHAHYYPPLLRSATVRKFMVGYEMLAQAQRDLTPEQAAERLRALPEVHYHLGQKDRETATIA
UniProt Q01415: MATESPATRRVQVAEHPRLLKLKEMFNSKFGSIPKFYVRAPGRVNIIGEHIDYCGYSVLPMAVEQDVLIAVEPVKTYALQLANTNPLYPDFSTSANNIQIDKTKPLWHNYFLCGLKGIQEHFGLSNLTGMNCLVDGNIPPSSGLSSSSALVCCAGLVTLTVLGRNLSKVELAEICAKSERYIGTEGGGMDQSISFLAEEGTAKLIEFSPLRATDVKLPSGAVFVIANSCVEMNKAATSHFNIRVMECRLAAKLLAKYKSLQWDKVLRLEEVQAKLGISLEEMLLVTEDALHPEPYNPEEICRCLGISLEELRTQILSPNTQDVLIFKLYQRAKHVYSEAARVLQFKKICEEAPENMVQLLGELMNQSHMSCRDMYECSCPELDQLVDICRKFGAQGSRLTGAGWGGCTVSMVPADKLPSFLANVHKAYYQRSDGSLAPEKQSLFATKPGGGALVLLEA
UniProt Q9BQS8: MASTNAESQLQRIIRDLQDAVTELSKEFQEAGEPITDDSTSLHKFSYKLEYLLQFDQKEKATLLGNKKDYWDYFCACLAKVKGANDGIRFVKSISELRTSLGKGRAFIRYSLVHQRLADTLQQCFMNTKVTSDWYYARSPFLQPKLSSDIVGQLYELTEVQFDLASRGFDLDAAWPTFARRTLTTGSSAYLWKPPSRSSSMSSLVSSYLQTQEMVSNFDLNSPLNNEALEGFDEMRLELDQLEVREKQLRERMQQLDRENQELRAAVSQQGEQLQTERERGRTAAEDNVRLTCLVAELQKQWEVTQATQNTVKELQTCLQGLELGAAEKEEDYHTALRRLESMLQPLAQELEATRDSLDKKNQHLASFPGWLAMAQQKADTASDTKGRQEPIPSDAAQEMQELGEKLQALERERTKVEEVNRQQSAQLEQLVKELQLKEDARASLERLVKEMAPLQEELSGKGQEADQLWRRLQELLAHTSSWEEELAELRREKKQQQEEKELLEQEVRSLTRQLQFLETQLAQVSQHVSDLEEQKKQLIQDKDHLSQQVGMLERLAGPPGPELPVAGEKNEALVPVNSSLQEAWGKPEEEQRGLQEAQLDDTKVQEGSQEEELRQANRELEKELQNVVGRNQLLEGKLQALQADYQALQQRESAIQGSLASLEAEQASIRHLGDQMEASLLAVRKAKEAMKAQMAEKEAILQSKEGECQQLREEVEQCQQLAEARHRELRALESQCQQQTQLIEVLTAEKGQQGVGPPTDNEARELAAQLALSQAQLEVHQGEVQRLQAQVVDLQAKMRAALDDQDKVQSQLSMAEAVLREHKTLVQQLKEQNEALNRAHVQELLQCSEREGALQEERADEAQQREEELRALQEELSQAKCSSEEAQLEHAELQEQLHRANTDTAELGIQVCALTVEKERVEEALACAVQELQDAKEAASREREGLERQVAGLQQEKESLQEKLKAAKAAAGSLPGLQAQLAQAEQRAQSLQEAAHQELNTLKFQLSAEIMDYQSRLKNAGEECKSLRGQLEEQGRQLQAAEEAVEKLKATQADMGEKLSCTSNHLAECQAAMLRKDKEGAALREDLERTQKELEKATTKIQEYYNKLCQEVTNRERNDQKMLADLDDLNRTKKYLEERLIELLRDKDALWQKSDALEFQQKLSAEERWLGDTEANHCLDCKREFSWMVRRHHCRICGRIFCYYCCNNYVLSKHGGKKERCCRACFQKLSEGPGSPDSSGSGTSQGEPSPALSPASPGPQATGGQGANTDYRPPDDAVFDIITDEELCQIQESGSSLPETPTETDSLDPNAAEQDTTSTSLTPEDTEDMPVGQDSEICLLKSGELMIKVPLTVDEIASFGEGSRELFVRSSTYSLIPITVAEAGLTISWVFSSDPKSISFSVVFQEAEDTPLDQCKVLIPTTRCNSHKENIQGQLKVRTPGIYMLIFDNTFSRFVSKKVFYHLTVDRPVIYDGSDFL
UniProt P51114, whole entry, looked up: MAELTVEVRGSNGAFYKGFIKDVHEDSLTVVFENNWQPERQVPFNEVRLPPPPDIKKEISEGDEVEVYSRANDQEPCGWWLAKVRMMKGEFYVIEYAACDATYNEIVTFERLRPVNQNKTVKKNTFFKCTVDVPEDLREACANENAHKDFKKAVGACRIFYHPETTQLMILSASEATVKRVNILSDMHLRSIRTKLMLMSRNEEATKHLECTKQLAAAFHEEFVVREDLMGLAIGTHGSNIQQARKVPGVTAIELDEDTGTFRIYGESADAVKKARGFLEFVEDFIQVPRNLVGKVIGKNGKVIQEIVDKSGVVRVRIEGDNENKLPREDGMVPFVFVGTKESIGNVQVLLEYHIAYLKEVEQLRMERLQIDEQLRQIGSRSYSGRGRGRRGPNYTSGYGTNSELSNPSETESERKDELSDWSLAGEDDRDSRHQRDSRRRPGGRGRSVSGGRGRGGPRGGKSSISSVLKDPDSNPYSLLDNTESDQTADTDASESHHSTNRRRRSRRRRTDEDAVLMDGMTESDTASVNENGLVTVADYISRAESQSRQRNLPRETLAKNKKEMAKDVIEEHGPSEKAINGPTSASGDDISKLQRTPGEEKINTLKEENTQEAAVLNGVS
UniProt Q9H3C7, whole entry, looked up: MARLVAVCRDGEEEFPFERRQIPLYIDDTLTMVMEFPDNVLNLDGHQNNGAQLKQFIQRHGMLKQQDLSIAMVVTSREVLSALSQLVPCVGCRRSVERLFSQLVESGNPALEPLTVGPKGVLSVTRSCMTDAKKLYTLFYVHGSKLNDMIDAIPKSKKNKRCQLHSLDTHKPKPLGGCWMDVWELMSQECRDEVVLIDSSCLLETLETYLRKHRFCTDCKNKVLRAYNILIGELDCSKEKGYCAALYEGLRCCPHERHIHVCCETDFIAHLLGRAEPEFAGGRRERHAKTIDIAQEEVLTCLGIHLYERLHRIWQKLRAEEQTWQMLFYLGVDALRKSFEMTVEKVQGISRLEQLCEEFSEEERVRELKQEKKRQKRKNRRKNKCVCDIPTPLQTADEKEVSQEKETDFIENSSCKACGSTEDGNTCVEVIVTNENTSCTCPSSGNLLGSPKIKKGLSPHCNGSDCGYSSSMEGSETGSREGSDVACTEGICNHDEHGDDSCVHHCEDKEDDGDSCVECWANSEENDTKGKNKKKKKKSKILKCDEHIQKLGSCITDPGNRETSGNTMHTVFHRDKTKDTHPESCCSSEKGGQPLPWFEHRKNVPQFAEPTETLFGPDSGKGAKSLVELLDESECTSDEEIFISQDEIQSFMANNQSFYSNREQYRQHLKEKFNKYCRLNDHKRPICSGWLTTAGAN
UniProt P34059: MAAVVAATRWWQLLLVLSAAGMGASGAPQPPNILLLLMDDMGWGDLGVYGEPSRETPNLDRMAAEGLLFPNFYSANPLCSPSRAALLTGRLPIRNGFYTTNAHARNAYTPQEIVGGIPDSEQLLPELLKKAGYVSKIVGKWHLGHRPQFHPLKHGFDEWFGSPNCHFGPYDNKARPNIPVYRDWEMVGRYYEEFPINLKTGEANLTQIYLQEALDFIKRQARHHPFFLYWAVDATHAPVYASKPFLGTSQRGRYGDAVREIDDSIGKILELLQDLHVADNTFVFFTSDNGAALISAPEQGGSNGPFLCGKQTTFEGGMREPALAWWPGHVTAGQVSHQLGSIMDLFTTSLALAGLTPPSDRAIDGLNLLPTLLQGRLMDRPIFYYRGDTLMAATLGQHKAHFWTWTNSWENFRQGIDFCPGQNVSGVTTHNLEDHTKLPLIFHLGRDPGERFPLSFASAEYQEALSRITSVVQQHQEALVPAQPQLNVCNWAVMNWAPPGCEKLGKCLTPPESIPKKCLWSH
UniProt Q13069: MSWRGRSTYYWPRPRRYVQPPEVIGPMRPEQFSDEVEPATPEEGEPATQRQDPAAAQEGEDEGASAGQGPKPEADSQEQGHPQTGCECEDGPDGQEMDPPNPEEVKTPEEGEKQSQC
UniProt Q9UJY5: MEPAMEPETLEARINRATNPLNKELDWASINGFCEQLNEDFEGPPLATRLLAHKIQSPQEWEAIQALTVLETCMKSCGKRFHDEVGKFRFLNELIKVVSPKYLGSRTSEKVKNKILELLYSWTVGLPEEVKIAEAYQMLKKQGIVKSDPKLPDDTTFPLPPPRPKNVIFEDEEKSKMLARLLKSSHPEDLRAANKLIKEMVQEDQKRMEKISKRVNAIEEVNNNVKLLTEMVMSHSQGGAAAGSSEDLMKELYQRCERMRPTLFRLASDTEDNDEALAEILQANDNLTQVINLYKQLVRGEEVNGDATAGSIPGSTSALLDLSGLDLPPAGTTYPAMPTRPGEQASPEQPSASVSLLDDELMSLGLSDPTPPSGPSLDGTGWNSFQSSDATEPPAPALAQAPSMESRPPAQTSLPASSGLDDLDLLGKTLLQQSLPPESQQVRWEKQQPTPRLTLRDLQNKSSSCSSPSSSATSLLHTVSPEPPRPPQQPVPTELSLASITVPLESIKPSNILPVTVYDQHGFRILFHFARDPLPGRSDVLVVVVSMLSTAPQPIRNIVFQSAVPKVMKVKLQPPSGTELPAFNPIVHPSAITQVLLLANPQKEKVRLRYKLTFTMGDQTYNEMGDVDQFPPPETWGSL

Key:
Test in all cases: log2 fold change, soluble protein after heating vs DMSO (PISA); higher = thermal stabilisation; K562 cells, 10 uM, 30 min; active = over 0.2 and 3.5 SD of the protein, either way, in both replicates (recomputed)
[1] = compound: C#Cc1cccc(Nc2ncnc3cc(OCCOC)c(OCCOC)cc23)c1 [erlotinib]
In short: (§1)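 Soluble protein was quantified by TMTpro 16plex LC-MS/MS after channel sums were equalised. It was obtained as the supernatant after 21,000xg for 90 min from pooled aliquots of K562 cells (2×10^6 cells/mL, 10 μM compound, 30 min) heated for 3 min across 48°C-58°C and extracted in PBS with 0.5% NP-40 at 4°C. Thermal stability values are relative to control samples and come from duplicates. They are given as log2 fold changes.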

[2] = compound: C/C(=N\NC(=O)C1=CC(=CC=C1)S(=O)(=O)N2CCOCC2)/C3=C(C=CC(=C3)Cl)O
In short: as §1

[3] = compound: C1=CC(=C(C=C1Cl)C2=NC3=NC=CN=C3C(=N2)NC4=CC=NC=C4)F
In short: as §1

[4] = compound: C1=CC(=CC=C1C2=NC3=C(N2)C=C(C=C3)C(=O)N)OC4=CC=C(C=C4)Cl
In short: as §1

[5] = compound: C1=CC2=C(C=CC(=C2)/C=C\3/C(=O)NC(=NCC4=CC=CS4)S3)N=C1
In short: as §1

[6] = compound: C1=CC2=NC=CN=C2C=C1/C=C/3\C(=O)NC(=O)S3
In short: as §1

[7] = compound: C1=CC=C(C=C1)C2=NC(=C(N2)C3=CC=NC=C3)C4=CC(=C(C=C4)Cl)O
In short: as §1

[8] = compound: C1=CC=C2C(=C1)C3=NNC4=CC=CC(=C43)C2=O
In short: as §1

[9] = compound: C1CCN(C1)C(=O)NC2=CC=CC(=C2)NC3=NC=C(C(=N3)NCCC4=CN=CN4)Br
In short: as §1

[10] = compound: C1CN(CCC1(CC2=CC=C(C=C2)Cl)N)C3=NC=NC4=C3C=CN4
In short: as §1

[11] = compound: C1COCCN1CCN2C3=CC=CC=C3N=C2NC(=O)C4=CC(=CC=C4)[N+](=O)[O-] [IRAK-1-4 Inhibitor I]
In short: as §1

[12] = compound: C=CC(=O)N1CCC[C@@H](n2nc(-c3ccc(Oc4ccccc4)cc3)c3c(N)ncnc32)C1 [ibrutinib]
In short: as §1

[13] = compound: CC(=O)c1cnc2ccc(-c3cc(Cl)c(O)c(Cl)c3)nc2c1N[C@H]1CC[C@H](CN(C)C)CC1
In short: as §1

[14] = compound: CC(C)(C)Cn1c(N)nc2ccc(-c3[nH]c(C(C)(C)C)nc3-c3ccc(F)cc3)nc21 [ralimetinib]
In short: as §1

[15] = compound: CC(C)(O)CC(=O)NCCn1ccc2ncnc(Nc3ccc(Oc4cccc(C(F)(F)F)c4)c(Cl)c3)c21
In short: as §1

[16] = compound: CC(C)C1=C2N=C(C=C(N2N=C1)NCC3=CC=CC=C3)NCCCCCCN
In short: as §1

[17] = compound: CC(C)C[C@@H](C=O)NC(=O)[C@H](CC(C)C)NC(=O)[C@H](CC(C)C)NC(=O)OCc1ccccc1
In short: as §1

[18] = compound: CC(C)N(C[C@H]1O[C@@H](n2cnc3c(N)ncnc32)[C@H](O)[C@@H]1O)[C@H]1C[C@@H](CCc2nc3cc(C(C)(C)C)ccc3[nH]2)C1 [pinometostat]
In short: as §1

[19] = compound: CC1=C(C(CC(=O)N1)C2=CC=C(C=C2)C(F)(F)F)C(=O)NC3=C(C=C4C(=C3)C=NN4)F
In short: as §1

[20] = compound: CC1=C(C2=C(C=C1)C(=O)C3=CC=CC=C3N2CCCN)C
In short: as §1

Measured: log2 fold change

FTL (UniProt P02792)
inactive: [1] -0.151 | [2] -0.094 | [3] -0.071 | [4] 0.093 | [5] 0.053 | [6] 0.07 | [7] -0.074 | [8] -0.02 | [9] 0.093 | [10] -0.079 | [11] -0.054 | [12] -0.073 | [13] -0.116 | [14] -0.015 | [15] 0.045 | [16] -0.061 | [17] 0.055 | [18] -0.045 | [19] 0.1 | [20] -0.086

GFER (UniProt P55789)
inactive: [1] 0.113 | [2] 0.055 | [3] -0.023 | [4] 0.059 | [5] -0.133 | [6] 0.021 | [7] -0.142 | [8] -0.029 | [9] -0.012 | [10] 0.063 | [11] 0.036 | [12] -0.016 | [13] -0.044 | [14] -0.113 | [15] 0.034 | [16] -0.213 | [17] 0.088 | [18] 0 | [19] -0.003 | [20] -0.003

FPGT (UniProt O14772)
inactive: [1] 0.011 | [2] 0.02 | [3] 0.053 | [4] 0.013 | [5] 0.043 | [6] 0.001 | [7] 0.013 | [8] 0.005 | [9] -0.024 | [10] 0.04 | [11] 0.061 | [12] -0.007 | [13] -0.015 | [14] -0.013 | [15] -0.138 | [16] -0.01 | [17] -0.025 | [18] 0.01 | [19] 0.017 | [20] 0.03

FOXRED1 (UniProt Q96CU9)
inactive: [1] -0.037 | [2] 0.013 | [3] 0.051 | [4] 0.03 | [5] 0.032 | [6] 0.011 | [7] 0.039 | [8] 0.085 | [9] -0.026 | [10] 0.128 | [11] -0.015 | [12] 0.14 | [13] -0.001 | [14] -0.064 | [15] -0.021 | [16] -0.014 | [17] 0.057 | [18] -0.034 | [19] -0.008 | [20] 0.074

GHITM (UniProt Q9H3K2)
inactive: [1] -0.015 | [2] 0.033 | [3] 0.03 | [4] 0.013 | [5] -0.006 | [6] 0.033 | [7] 0.02 | [8] 0.028 | [9] 0.043 | [10] 0.057 | [11] 0.039 | [12] 0.034 | [13] 0.013 | [14] -0.012 | [15] -0.016 | [16] -0.082 | [17] -0.002 | [18] -0.019 | [19] 0.013 | [20] 0

4 successive records already listed, quoted:
GFER (UniProt P55789)
inactive: [1] 0.113 | [2] 0.055 | [3] -0.023 | [4] 0.059 | [5] -0.133 | [6] 0.021 | [7] -0.142 | [8] -0.029 | [9] -0.012 | [10] 0.063 | [11] 0.036 | [12] -0.016 | [13] -0.044 | [14] -0.113 | [15] 0.034 | [16] -0.213 | [17] 0.088 | [18] 0 | [19] -0.003 | [20] -0.003

FPGT (UniProt O14772)
inactive: [1] 0.011 | [2] 0.02 | [3] 0.053 | [4] 0.013 | [5] 0.043 | [6] 0.001 | [7] 0.013 | [8] 0.005 | [9] -0.024 | [10] 0.04 | [11] 0.061 | [12] -0.007 | [13] -0.015 | [14] -0.013 | [15] -0.138 | [16] -0.01 | [17] -0.025 | [18] 0.01 | [19] 0.017 | [20] 0.03

FOXRED1 (UniProt Q96CU9)
inactive: [1] -0.037 | [2] 0.013 | [3] 0.051 | [4] 0.03 | [5] 0.032 | [6] 0.011 | [7] 0.039 | [8] 0.085 | [9] -0.026 | [10] 0.128 | [11] -0.015 | [12] 0.14 | [13] -0.001 | [14] -0.064 | [15] -0.021 | [16] -0.014 | [17] 0.057 | [18] -0.034 | [19] -0.008 | [20] 0.074

GHITM (UniProt Q9H3K2)
inactive: [1] -0.015 | [2] 0.033 | [3] 0.03 | [4] 0.013 | [5] -0.006 | [6] 0.033 | [7] 0.02 | [8] 0.028 | [9] 0.043 | [10] 0.057 | [11] 0.039 | [12] 0.034 | [13] 0.013 | [14] -0.012 | [15] -0.016 | [16] -0.082 | [17] -0.002 | [18] -0.019 | [19] 0.013 | [20] 0

The results go on.

GCHFR (UniProt P30047)
inactive: [1] 0.075 | [2] 0.224 | [3] 0.064 | [4] 0.079 | [5] -0.055 | [6] 0.018 | [7] -0.04 | [8] 0.085 | [9] 0.135 | [10] 0.048 | [11] -0.037 | [12] 0.043 | [13] -0.414 | [14] -0.006 | [15] 0.074 | [16] 0.239 | [17] -0.069 | [18] -0.002 | [19] -0.012 | [20] 0.285

FXN (UniProt Q16595)
inactive: [1] 0 | [2] 0.027 | [3] 0.023 | [4] -0.033 | [5] 0.057 | [6] 0.024 | [7] 0.13 | [8] 0.033 | [9] -0.03 | [10] -0.047 | [11] -0.012 | [12] 0.026 | [13] -0.023 | [14] -0.02 | [15] 0.004 | [16] -0.003 | [17] -0.07 | [18] -0.025 | [19] -0.045 | [20] 0.177

GALT (UniProt P07902)
inactive: [1] 0.008 | [2] 0.023 | [3] -0.079 | [4] -0.037 | [5] 0.049 | [6] 0.043 | [7] 0.048 | [8] -0.068 | [9] -0.107 | [10] 0.005 | [11] 0.066 | [12] 0.045 | [13] -0.09 | [14] -0.068 | [15] -0.064 | [16] 0.096 | [17] 0.016 | [18] -0.089 | [19] 0.263 | [20] 0.001

GALK2 (UniProt Q01415)
inactive: [1] -0.008 | [2] 0.026 | [3] 0.102 | [4] 0.01 | [5] 0.027 | [6] 0.008 | [7] 0.021 | [8] -0.032 | [9] 0.022 | [10] 0.039 | [11] 0.005 | [12] 0.041 | [13] -0.004 | [14] -0.023 | [15] -0.054 | [16] 0.009 | [17] -0.03 | [18] -0.034 | [19] 0.034 | [20] 0.022

FYCO1 isoform 4 (UniProt Q9BQS8)
inactive: [1] 0.05 | [2] 0.02 | [3] 0.023 | [4] 0.006 | [5] 0 | [6] -0.03 | [7] 0.012 | [8] 0.041 | [9] 0.001 | [10] -0.009 | [11] -0.039 | [12] -0.014 | [13] -0.117 | [14] -0.015 | [15] -0.041 | [16] -0.095 | [17] 0.187 | [18] 0.096 | [19] 0.016 | [20] 0.018

FXR1 (UniProt P51114)
inactive: [1] 0.024 | [2] -0.051 | [3] -0.572 | [4] -0.068 | [5] 0.372 | [6] 0.013 | [7] -0.112 | [8] 0.02 | [9] -0.021 | [10] -0.06 | [11] -0.073 | [12] 0.028 | [13] -0.033 | [14] 0.167 | [15] 0.118 | [16] -0.243 | [17] 0.233 | [18] 0.303 | [19] 0.018 | [20] 0.024

GGNBP2 (UniProt Q9H3C7)
inactive: [1] -0.115 | [2] -0.08 | [3] -0.122 | [4] 0.028 | [5] 0.033 | [6] -0.017 | [7] -0.013 | [8] -0.057 | [9] -0.08 | [10] -0.06 | [11] -0.198 | [12] 0.096 | [13] -0.082 | [14] 0.024 | [15] 0 | [16] 0.036 | [17] 0.22 | [18] 0.16 | [19] -0.232 | [20] -0.062

GALNS (UniProt P34059)
inactive: [1] 0.005 | [2] -0.013 | [3] -0.018 | [4] 0 | [5] 0.049 | [6] -0.043 | [7] 0.002 | [8] -0.019 | [9] 0.008 | [10] -0.016 | [11] -0.072 | [12] 0.039 | [13] -0.017 | [14] 0.043 | [15] 0.018 | [16] 0.1 | [17] -0.026 | [18] 0.047 | [19] -0.037 | [20] -0.002

GCN1 (UniProt Q92616)
inactive: [1] 0.019 | [2] -0.098 | [3] -0.55 | [4] -0.01 | [5] 0.022 | [6] 0.012 | [7] -0.059 | [8] 0.034 | [9] -0.058 | [10] -0.234 | [11] -0.212 | [12] -0.022 | [13] 0.271 | [14] 0.315 | [15] 0.029 | [16] -0.302 | [17] 0.211 | [18] 0.649 | [19] -0.027 | [20] -0.07

GAGE5 (UniProt Q13069)
inactive: [1] 0.061 | [2] -0.115 | [3] 0.076 | [4] -0.121 | [5] 0.022 | [6] 0.031 | [7] -0.047 | [8] -0.028 | [9] 0.01 | [10] -0.017 | [11] 0.019 | [12] 0.011 | [13] 0.023 | [14] -0.104 | [15] -0.038 | [16] 0.019 | [17] -0.049 | [18] -0.069 | [19] 0.027 | [20] 0.071

GGA1 isoform 6 (UniProt Q9UJY5)
inactive: [1] -0.009 | [2] 0.023 | [3] -0.024 | [4] -0.018 | [5] -0.007 | [6] 0.014 | [7] -0.039 | [8] -0.016 | [9] -0.014 | [10] -0.023 | [11] 0.028 | [12] -0.007 | [13] 0.018 | [14] -0.05 | [15] 0.067 | [16] 0.027 | [17] 0.067 | [18] 0.007 | [19] 0.017 | [20] 0.014
